No constants are given. Whether binding was seen depends on the method and setting. Some binding calls cover weakened binding; strength is not graded here.
Target: recombinant CD74 protein (Santa Cruz Biotechnology) (human) (UniProt P04233)
Assay: ELISA, CD74 coated at 2 ug/mL, detection with peroxidase-labeled anti-human kappa chain antibody

Sequences of proteins named here, by UniProt entry; tags and fusion partners are left off. A change or cut given only in a name is not applied to a line headed by its entry. A line that says so, or that is headed by a name, gives the form on record, which may keep a tag or linker.
recombinant CD74 protein (Santa Cruz Biotechnology) (P04233, form named): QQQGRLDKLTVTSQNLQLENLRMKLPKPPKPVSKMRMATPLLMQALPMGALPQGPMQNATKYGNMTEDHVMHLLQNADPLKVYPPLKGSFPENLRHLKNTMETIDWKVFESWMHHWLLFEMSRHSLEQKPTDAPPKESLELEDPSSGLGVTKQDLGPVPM

- binding: binds
B1: anti-CD74 IgG1 antibody hLL1 F (antibody, V domains shown)
VH: QVQLQQSGSELKKPGASVKVSCKASGYTFTNYGVNWIKQAPGQGLQWMGWINPNTGEPTFDDDFKGRFAFSLDTSVSTAYLQISSLKADDTAVYFCSRSRGKNEAWFAYWGQGTLVTVSS
VL: DIQLTQSPLSLPVTLGQPASISCRSSQSLVHRNGNTYLHWFQQRPGQSPRLLIYTVSNRFSGVPDRFSGSGSGTDFTLKISRVEAEDVGVYFCSQSSHVPPTFGAGTRLEIK

Reference: patent publication US20170362323A1 (Kyowa Kirin, published 2017)
